From PubChem BioAssay AID330 (DTP/NCI, 2004)
The list shows only some results of the screen, not a fair sample: it gathers tests that were run many times, whatever their T/C, doses with no T/C, and many T/C values between a quarter and a half above the control. Further doses and runs are listed elsewhere. T/C gives the treated animals as a percentage of the vehicle group. Some entries give survivors of the animals treated and no T/C: the source holds a T/C of zero for them, seemingly a mark for toxic or unscored doses. Some survivor counts are full or nearly so, which does not show that the dose was tolerated: the source hardly ever lists a survival T/C far under the control, and the zero likely stands for such cases as well. Survivors were counted at the toxicity check, usually on the fifth day, unless a day is given; later deaths do not show. Schedules are NCI's codes, read here as Q, the interval in days (D) or hours (H), X, the number of doses. Some structures stand for samples that the source files as different forms (salt, stereo form or complex); doses refer to the form tested. Where survival is the endpoint, this PubChem deposit counts one and a half times the control or more as active, and values a quarter to a half above the control carry no call in these data; other NCI protocols may use other cut-offs.

Test system: P388 leukemia ip, CD2F1 mice, survival T/C
Assay: NCI In Vivo Anticancer Drug Screen. Data for tumor model P388 Leukemia (intraperitoneal) in CD2F1 (CDF1) mice
Conditions: T/C endpoint: median survival time, higher T/C = longer survival
[1] = dose: 240.0 mg/kg/injection, schedule: Q01DX005 (ip), vehicle: Klucel (hydroxypropylcellulose) (HPC)
[2] = dose: 100.0 mg/kg/injection, schedule: Q01DX009 (ip), vehicle: saline with Tween-80
[3] = dose: 200.0 mg/kg/injection, schedule: Q01DX009 (ip), vehicle: saline with Tween-80
[4] = dose: 200.0 mg/kg/injection, schedule: Q01DX005 (ip), vehicle: saline
[5] = dose: 240.0 mg/kg/injection, schedule: Q01DX005 (ip), vehicle: saline with Tween-80
[6] = dose: 120.0 mg/kg/injection, schedule: Q01DX005 (ip), vehicle: saline with Tween-80
[7] = dose: 50.0 mg/kg/injection, schedule: Q01DX009 (ip), vehicle: saline
[8] = dose: 100.0 mg/kg/injection, schedule: Q01DX009 (ip), vehicle: saline
[9] = dose: 400.0 mg/kg/injection, schedule: Q01DX005 (ip), vehicle: water

Compound: CNC(=O)c1cccc2c(Nc3ccc(NS(C)(=O)=O)cc3OC)c3cccc(C)c3nc12
- T/C (dose: 1.5 mg/kg/injection, schedule: Q01DX005 (ip), vehicle: water): 148 % of control
- survivor count (dose: 6.0 mg/kg/injection, schedule: Q01DX005 (ip), vehicle: water): 5 of 5
- survivor count (dose: 12.0 mg/kg/injection, schedule: Q01DX005 (ip), vehicle: water): 5 of 5
- survivor count (dose: 12.5 mg/kg/injection, schedule: Q01DX005 (ip), vehicle: water): 5 of 5
- survivor count (dose: 24.0 mg/kg/injection, schedule: Q01DX005 (ip), vehicle: water): 3 of 5
- survivor count (dose: 25.0 mg/kg/injection, schedule: Q01DX005 (ip), vehicle: water): 5 of 5
- survivor count (dose: 25.0 mg/kg/injection, schedule: Q01DX005 (oral), vehicle: water): 6 of 6
- survivor count (dose: 50.0 mg/kg/injection, schedule: Q01DX005 (ip), vehicle: water): 5 of 5
- survivor count (dose: 50.0 mg/kg/injection, schedule: Q01DX005 (oral), vehicle: water): 6 of 6
- survivor count (dose: 100.0 mg/kg/injection, schedule: Q01DX005 (ip), vehicle: water): 5 of 5
- survivor count (dose: 100.0 mg/kg/injection, schedule: Q01DX005 (oral), vehicle: water): 6 of 6
- survivor count (dose: 200.0 mg/kg/injection, schedule: Q01DX005 (ip), vehicle: water): 1 of 5
- survivor count (dose: 200.0 mg/kg/injection, schedule: Q01DX005 (oral), vehicle: water): 6 of 6

Compound: N#CC(Br)C(N)=O (stereo not given)
- T/C (dose: 10.0 mg/kg/injection, schedule: Q01DX009 (ip), vehicle: saline with Tween-80): 126 % of control

Compound: Cc1n[nH]c(=O)n(/N=C/c2ccc(N(C)C)cc2)c1=O
- survivor count [1]: 6 of 6

Compound: CC[n+]1cccc(C(=O)c2ccccc2)c1
- survivor count (dose: 60.0 mg/kg/injection, schedule: Q01DX005 (ip), vehicle: saline): 0 of 6
- survivor count (dose: 120.0 mg/kg/injection, schedule: Q01DX005 (ip), vehicle: saline): 0 of 6
- survivor count (dose: 240.0 mg/kg/injection, schedule: Q01DX005 (ip), vehicle: saline): 0 of 6

Compound: CCN(CC)Cc1cc2[nH]c3c4ccc(Cl)cc4ncc3c2cc1OC
- survivor count [2]: 5 of 6
- survivor count (dose: 200.0 mg/kg/injection, schedule: Q01DX005 (ip), vehicle: saline with Tween-80): 4 of 6
- survivor count [3]: 0 of 6

Compound: CC1CC[N+](C)([B-](F)(F)F)CC1 (stereo not given)
- survivor count [4]: 0 of 6

Compound: Cn1nc(-c2ccc(S(=O)(=O)F)cc2)s/c1=N/NC(=O)c1ccccc1
- survivor count (dose: 240.0 mg/kg/injection, schedule: Q01DX005 (ip), vehicle: Klucel + Tween-80): 6 of 6

Compound: COc1ccc2nc(C(=O)NC3COC(=O)C(C(C)(C)O)N(C)C(=O)CN(C)C(=O)CNC(=O)C4C(OC(C)=O)CC=NN4C(=O)C(NC(=O)c4nc5ccc(OC)cc5cc4O)COC(=O)C(C(C)(C)O)N(C)C(=O)CN(C)C(=O)CNC(=O)C4C(O)CC=NN4C3=O)c(O)cc2c1 (stereo not given)
- T/C (dose: 50.0 micrograms/kg/injection, schedule: Q01DX005 (ip), vehicle: DMSO): 130 % of control
- survivor count (dose: 100.0 micrograms/kg/injection, schedule: Q01DX005 (ip), vehicle: DMSO): 6 of 6
- survivor count (dose: 200.0 micrograms/kg/injection, schedule: Q01DX005 (ip), vehicle: DMSO): 3 of 6
- survivor count (dose: 400.0 micrograms/kg/injection, schedule: Q01DX005 (ip), vehicle: DMSO): 1 of 6
- survivor count (dose: 800.0 micrograms/kg/injection, schedule: Q01DX005 (ip), vehicle: DMSO): 0 of 6

Compound: NC(=S)N/N=C1/CCCC/C1=N/O
- survivor count [5]: 0 of 6

Compound: C1=C(c2ccccc2)C(c2cccc(OCCN3CCCCC3)c2)Oc2ccccc21 (stereo not given)
- survivor count (dose: 60.0 mg/kg/injection, schedule: Q01DX005 (ip), vehicle: saline with Tween-80): 0 of 6
- survivor count [6]: 0 of 6
- survivor count [5]: 0 of 6

Compound: CC[N+](CC)=c1ccc2nc3c(cc(Nc4ccccc4)c4ccccc43)oc-2c1.[Cl][Zn][Cl]
- survivor count [1]: 0 of 6

Compound: CCOC(=O)C(=CN(C)c1ccc(Cl)cc1)C(=O)OCC
- survivor count [7]: 6 of 6
- survivor count [8]: 6 of 6

Compound: Cc1ccc(Br)cc1CCO
- survivor count (dose: 400.0 mg/kg/injection, schedule: Q01DX005 (ip), vehicle: Klucel (hydroxypropylcellulose) (HPC)): 3 of 5

Compound: CC1(C)CO/C(=C/C(=O)c2ccccc2)N1C(=O)c1ccccc1
- survivor count [5]: 6 of 6

Compound: COc1cc(N=Nc2cccc(C(=O)O)c2)ccc1N(CCCl)CCCl
- T/C (dose: 6.25 mg/kg/injection, schedule: Q01DX009 (ip), vehicle: saline with Tween-80): 128 % of control
- T/C (dose: 12.5 mg/kg/injection, schedule: Q01DX009 (ip), vehicle: saline with Tween-80): 128 % of control
- T/C (dose: 25.0 mg/kg/injection, schedule: Q01DX009 (ip), vehicle: saline with Tween-80): 130 % of control
- survivor count (dose: 50.0 mg/kg/injection, schedule: Q01DX009 (ip), vehicle: saline with Tween-80): 6 of 6
- survivor count [2]: 4 of 6
- survivor count [3]: 0 of 6

Compound: OC(CCl)CN1CC[N+]2(CC1)CC[N+]1(CCN(CC(O)CCl)CC1)CC2 (stereo not given)
- T/C (dose: 100.0 mg/kg/injection, schedule: Q03HX016 (ip), vehicle: water): 128 % of control
- survivor count (dose: 200.0 mg/kg/injection, schedule: Q01DX005 (iv), vehicle: water): 5 of 8
- T/C (dose: 200.0 mg/kg/injection, schedule: Q03HX008 (ip), vehicle: water): 130 % of control
- T/C (dose: 200.0 mg/kg/injection, schedule: Q03HX016 (ip), vehicle: water): 134 % of control
- survivor count (dose: 200.0 mg/kg/injection, schedule: Q03HX024 (ip), vehicle: water): 9 of 10
- T/C [9]: 127 % of control
- survivor count [9]: 0 of 8
- survivor count (dose: 400.0 mg/kg/injection, schedule: Q01DX005 (iv), vehicle: water): 0 of 8
- survivor count (dose: 800.0 mg/kg/injection, schedule: Q01DX005 (ip), vehicle: water): 10 of 10
- survivor count (dose: 800.0 mg/kg/injection, schedule: Q01DX005 (iv), vehicle: water): 0 of 10
- survivor count (dose: 800.0 mg/kg/injection, schedule: Q01DX009 (ip), vehicle: water): 10 of 10
- survivor count (dose: 1600.0 mg/kg/injection, schedule: Q01DX009 (oral), vehicle: water): 10 of 10

Compound: CC(=O)OC12CC[N+]3(C)CCCCC3C1=Nc1ccccc12 (stereo not given)
- survivor count [7]: 0 of 6

Compound: Cc1ccc(C)c(OP2(=O)NC3CCCCC3N2)c1 (stereo not given)
- survivor count (dose: 400.0 mg/kg/injection, schedule: Q04DX002 (ip), vehicle: Klucel (hydroxypropylcellulose) (HPC)): 3 of 6

Compound: CC(C)c1ccc(C(=O)O)cc1
- survivor count (dose: 400.0 mg/kg/injection, schedule: Q01DX009 (ip), vehicle: saline with Tween-80): 5 of 6

Compound: CN(C)c1nc(N)c(N=O)c(=O)[nH]1
- survivor count [8]: 6 of 6
- survivor count (dose: 200.0 mg/kg/injection, schedule: Q01DX009 (ip), vehicle: saline): 6 of 6
- survivor count (dose: 200.0 mg/kg/injection, schedule: Q04DX003 (ip), vehicle: saline with Tween-80): 0 of 6
- survivor count (dose: 400.0 mg/kg/injection, schedule: Q04DX003 (ip), vehicle: saline with Tween-80): 0 of 6

Compound: CC[N+](C)(CC)C1C(S(=O)(=O)c2ccccc2)CC1(C)C (stereo not given)
- survivor count [4]: 0 of 6

Compound: c1ccc2c(NCC3CCN(c4c5ccccc5nc5ccccc45)CC3)c3ccccc3nc2c1
- survivor count (dose: 100.0 mg/kg/injection, schedule: Q04DX002 (ip), vehicle: saline with Tween-80): 6 of 6
- survivor count (dose: 200.0 mg/kg/injection, schedule: Q04DX002 (ip), vehicle: saline with Tween-80): 1 of 6
- survivor count (dose: 400.0 mg/kg/injection, schedule: Q04DX002 (ip), vehicle: saline with Tween-80): 0 of 6

Compound: CCCCCCCCC1(OCCCS(=O)(=O)O)COc2ccccc2OCCOCCOc2ccccc2OC1
- survivor count [6]: 1 of 6

Compound: COc1cc2c(cc1OC)C13CCN4CC5=CCOC6CC(=O)N2C1C6C5CC43 (stereo not given)
- survivor count (dose: 100.0 mg/kg/injection, schedule: Q04DX003 (ip), vehicle: saline sonified): 3 of 6
- survivor count [6]: 0 of 6
- survivor count [5]: 0 of 6
